Assay results reported in the supplement of paper PMC3334620.
Whole data set: some 33,000 sequences, median “E-score (-0.5 to 0.5)” near -8e-05, cut for the highest 2% near 0.23. This is one part of the list.

target: T1, Nrg2 (UniProt P38082); experiment: PBM E-score (8-mer binding enrichment) (E-score (-0.5 to 0.5)); higher = stronger / more preferred TF binding; details: protein concentration: 100 nM; construct: GST-full length
T1 sequence: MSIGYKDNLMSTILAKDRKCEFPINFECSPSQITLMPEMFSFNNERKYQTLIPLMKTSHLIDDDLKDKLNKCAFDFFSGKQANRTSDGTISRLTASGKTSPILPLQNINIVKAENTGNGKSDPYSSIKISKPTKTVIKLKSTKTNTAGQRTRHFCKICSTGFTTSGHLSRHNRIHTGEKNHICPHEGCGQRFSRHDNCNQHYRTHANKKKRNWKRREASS
In short: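 For each ungapped eight-base word taken together with its reverse complement, the Universal PBM Analysis Suite assigned an E-score. Binding data came from GST-tagged yeast transcription factors, applied at about 100-200 nM, on universal all-10-mer Agilent arrays made double-stranded by primer extension. Fluorescent anti-GST marked bound protein, and scans were normalised with masliner.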

Row | Sequence | PBM E-score
1 | ACCCGGAA | 0.0171
2 | CAAAATTC | 0.131
3 | GTCTAGAA | 0.0141
4 | TATTTAGA | 0.0683
5 | CTGAAGGC | -0.175
6 | CATCCCCG | 0.167
7 | ATGATAGC | 0.141
8 | AAGAATTA | -0.0237
9 | AAAGCCCA | -0.0731
10 | GAAAGTCA | 0.0315
11 | CCTTAGCC | -0.00443
12 | TCTAAAGA | 0.00161
13 | ACGGGCAC | -0.0313
14 | CCAGTCAA | -0.0327
15 | AACGGATA | 0.258
16 | ACTCCGGA | 0.214
17 | AACCTTAT | -0.166
18 | AATAGATC | 0.208
19 | CGCGAGGC | 0.121
20 | GAAAATGA | -0.0055
21 | AATAATGA | 0.0641
22 | ATGCGAAT | 0.132
23 | AGACCAAG | 0.0702
24 | ACCGGTAC | -0.298
25 | GAATGCAA | 0.0701

Row | Sequence | PBM E-score
26 | TGGAGGAA | -0.0748
27 | CGATAAGC | -0.0581
28 | AGATAGGG | 0.0478
29 | CGATTCTA | -0.148
30 | CTGCCAAA | 0.0246
31 | CTACCGCC | -0.0974
32 | AGTCCACT | -0.182
33 | AAGAAGGT | 0.0446
34 | AAAAGTCC | 0.006
35 | AAGAACGG | 0.0233
36 | AGAAGGCC | -0.134
37 | AAGTCATC | -0.059
38 | ATTGCAAG | 0.137
39 | CATGTGGC | 0.0563
40 | CCCGAAAG | 0.118
41 | AGGCAGAA | 0.0979
42 | AAGGCTAT | -0.18
43 | AGATCACA | -0.0181
44 | CCACTTAC | 0.174
45 | CTAGCCGC | 0.00502
46 | AGAGATCC | 0.0789
47 | ACTACAAT | 0.153
48 | GGCGCGCC | 0.187
49 | GGAAGTTA | 0.144
50 | AGGCATCC | -0.161

Row | Sequence | PBM E-score
51 | ATTTCCCA | 0.153
52 | ATAACACG | 0.0449
53 | CCCCCCGG | -0.397
54 | GGTTCATA | -0.016
55 | AATCAAAC | 0.222
56 | CCCTGTGA | 0.059
57 | CCTGTTAC | 0.0314
58 | CGAACAGC | -0.041
59 | CTGTGAAG | 0.0207
60 | GTTGCTAA | 0.196
61 | CGATCTAC | -0.00988
62 | CTATATAC | 0.238
63 | CCAACAGG | -0.0342
64 | CCCGTTCA | 0.096
65 | ACCTGATA | 0.0459
66 | TTGACAAA | 0.094
67 | AAAGGGGG | -0.327
68 | GTGGCTAA | 0.0968
69 | ACAATCGT | -0.101
70 | GGTACTAA | 0.115
71 | CCAAGCGG | -0.234
72 | ACGATCCC | -0.0731
73 | AGAGCAAG | 0.176
74 | ACACGAGT | 0.126
75 | GGCCACCA | 0.0277

Row | Sequence | PBM E-score
76 | CGTCCATA | -0.00049
77 | GCGGTATA | -0.00849
78 | CGGAATTA | 0.105
79 | ATAGCCTA | -0.0628
80 | AGGCTTAT | -0.161
81 | ATAACGGA | 0.167
82 | AATACAGG | 0.13
83 | GCTGCTAA | 0.0172
84 | CGTGCAAC | 0.0176
85 | GTCTTAGA | -0.0799
86 | ACGCGCCC | -0.029
87 | GTTGGCTA | -0.0794
88 | AACAGATC | 0.0888
89 | GGGTTACC | -0.168
90 | CCAGTCCG | -0.219
91 | CCATTATC | 0.0766
92 | CATTTCAC | -0.0548
93 | TAATCAGA | 0.133
94 | GCCCTCAC | -0.177
95 | CTCCGCAC | -0.157
96 | CATCTGCC | -0.105
97 | AACTGCTC | 0.0284
98 | CCTGGGGC | -0.17
99 | ACATGAAT | -0.00677
100 | CGCTCTCC | -0.0921

Fetched one by one from the entries so far, 3 records:
Row | Sequence | PBM E-score
95 | CTCCGCAC | -0.157
77 | GCGGTATA | -0.00849
43 | AGATCACA | -0.0181

(list continues)

Row | Sequence | PBM E-score
101 | CCCCTCCA | -0.0431
102 | CTATAACA | -0.182
103 | ACGATGGG | -0.00605
104 | AGATTCCC | 0.0719
105 | AGGGACTG | 0.119
106 | ATACGCGG | -0.016
107 | GCAAAAGA | 0.0641
108 | GTGTTTAA | 0.113
109 | ACGATTAG | 0.0965
110 | ATAGCCCG | -0.218
111 | ATTCCTCC | -0.0463
112 | AAGTGATT | 0.0989
113 | CTGTTCGA | -0.101
114 | GGGTGAAC | -0.055
115 | CTAACGAA | -0.0418
116 | ATAGACCG | -0.127
117 | GACTTTTA | -0.0998
118 | CTGTTGCC | -0.123
119 | CTTCGCTC | -0.0505
120 | CAGCTGGG | -0.055
121 | GGTTAATA | -0.0119
122 | GAAATCCA | 0.142
123 | CTGCCGTC | -0.0881
124 | AGACTACC | 0.0115
125 | GCATAGCC | -0.19

Row | Sequence | PBM E-score
126 | ATCAAACC | 0.123
127 | CGTGGATA | 0.0394
128 | AACGAGTA | 0.0734
129 | AGCACACT | 0.00567
130 | ACGTTCAG | -0.211
131 | GCGGTACA | -0.00728
132 | ATCCAGTC | -0.0107
133 | AAGCGGTC | -0.0575
134 | CAATTGTA | 0.0262
135 | ATCAGATC | 0.0378
136 | ACAACCCC | 0.134
137 | GATGGTAC | -0.0007
138 | CCAACGGA | -0.031
139 | ACCATCGG | -0.0936
140 | AGCGCACT | -0.0126
141 | ATACAGGA | -0.00019
142 | GCTACTCA | 0.0406
143 | AACGATCT | -0.013
144 | ACCGCGTA | 0.00539
145 | CTCAACTC | 0.117
146 | AGAAACTC | -0.0479
147 | CCGGTCAC | -0.16
148 | AGGGACCA | 0.35
149 | ACTGTTAG | 0.00286
150 | AGTCTACC | -0.0666

Row | Sequence | PBM E-score
151 | GCTCCGCC | -0.0308
152 | GCACGAGC | -0.115
153 | ACGTTCGG | -0.268
154 | AGAAACAT | 0.0682
155 | GCATAGAC | -0.179
156 | GACACCCC | -0.215
157 | AGGACAGC | -0.0372
158 | CACTAACC | 0.0362
159 | ACAAGTGA | 0.0394
160 | CGAAGTGA | 0.079
161 | AAGACGAT | -0.0742
162 | ATGAGCAA | 0.121
163 | GCGTACTA | 0.0164
164 | AGCGCGCC | 0.0741
165 | AAAGGTAC | 0.00989
166 | AATCGATG | 0.0168
167 | CATGTCAC | 0.0174
168 | ATACTGAG | 0.255
169 | TCCCCCGA | -0.243
170 | CCAAAATA | 0.0548
171 | ATGCGAAG | -0.00307
172 | ATCCGAGG | -0.00352

Part of the list above, with tabs.
Row	Sequence	PBM E-score
83	GCTGCTAA	0.0172
84	CGTGCAAC	0.0176
85	GTCTTAGA	-0.0799
86	ACGCGCCC	-0.029
87	GTTGGCTA	-0.0794
88	AACAGATC	0.0888
89	GGGTTACC	-0.168
90	CCAGTCCG	-0.219
91	CCATTATC	0.0766
92	CATTTCAC	-0.0548
93	TAATCAGA	0.133
94	GCCCTCAC	-0.177
95	CTCCGCAC	-0.157
96	CATCTGCC	-0.105
97	AACTGCTC	0.0284
98	CCTGGGGC	-0.17
99	ACATGAAT	-0.00677
100	CGCTCTCC	-0.0921
101	CCCCTCCA	-0.0431
102	CTATAACA	-0.182
103	ACGATGGG	-0.00605
104	AGATTCCC	0.0719
105	AGGGACTG	0.119
106	ATACGCGG	-0.016
107	GCAAAAGA	0.0641
108	GTGTTTAA	0.113
109	ACGATTAG	0.0965
110	ATAGCCCG	-0.218
111	ATTCCTCC	-0.0463
112	AAGTGATT	0.0989
113	CTGTTCGA	-0.101
114	GGGTGAAC	-0.055
115	CTAACGAA	-0.0418
